Laboratory results: the supplement of paper PMC12578635
This is one part of the list. No stated cut-off is given here; in the data, active = 150% or more and inactive = the rest. Most values come without repeats; read them as rough.

Test system: Staphylococcus aureus JE2-lux inside RAW 264.7 macrophages
Assay: intracellular bacterial bioluminescence relative to DMSO vehicle; higher = higher intracellular bacterial metabolic activity
Settings: 10 µM; treatment time 4 h; gentamicin 50 µg/ml

Intracellular bacterial bioluminescence, inactive:
N#CC1=C(N)OC2=C(C(=O)CCC2)C1c1ccco1 (stereo not given) 120%, Cc1nc2c(C(=O)NCc3cccnc3)cnn2c(O)c1Cc1ccc(F)cc1Cl 68.8%, Cc1[nH]c2nc(N(Cc3ccc(Cl)cc3)C(=O)CCc3ccccc3)nn2c(=O)c1C 93.3%, Cc1ccc(Cc2nnc(-c3cc(NC(=O)Nc4ccc5c(c4)OCCO5)ccc3F)o2)cc1 48.7%, O=C(N1CCC(n2nc(C3CC3)ccc2=O)CC1)C1(c2ccccc2)CC1 100%, CC[C@@H](Cn1nc(-c2ccc(F)c(F)c2)ccc1=O)NC(=O)Cc1ccccc1F 110%, O=C(Nc1ccc2c(c1)CCCN2C(=O)C1CC1)c1ccccc1C(F)(F)F 115%, O=C(CN1CCc2nc(N3CCCC3)[nH]c(=O)c2C1)Nc1nccs1 92.7%, COc1cc(NC(=O)c2cnn3c4c(cnc23)C(=O)CC(C)(C)C4)cc(OC)c1 86.4%, Cc1ccc(NC(=O)c2ccnc(Nc3ccc(F)cc3)c2)cc1 112%, COCCN(Cc1cc2ccc(C)c(C)c2nc1Cl)C(=O)Nc1ccccc1C 84%, COC(=O)c1sc2ccccc2c1NC(=O)c1cc(Cl)ccc1[N+](=O)[O-] 94.7%, CCOc1ccc(NC(=O)Nc2c(-c3cccnc3)[nH]c3ccccc23)cc1 88.9%, Nc1nc(SCC(=O)NCc2ccccc2)nc2sc3c(c12)CCC3 77.2%, CC1=C(C(=O)OC2CCCCCCC2)C(c2ccccc2Cl)NC(=O)N1 (stereo not given) 32.4%, COc1cc(C2CC(=O)Nc3c2cnn3-c2nc3ccccc3s2)ccc1OCc1ccc(C)cc1 (stereo not given) 105%, CC(C)CCNC(=O)CSc1nc(-c2cccc(Cl)c2)nc2cc(=O)[nH]n12 102%, CCOc1ccc(NC(=O)Cn2c3ccccc3n3c(=O)cc(-c4ccccn4)nc23)cc1 92.7%, Cc1cc(NS(=O)(=O)c2ccc(NC(=O)c3cnc4sccn4c3=O)cc2)nc(C)n1 122%, COc1ccc(C)c2sc(N(Cc3ccccc3)C(=O)c3ccco3)nc12 121%, COCCNC(=O)COc1ncnc2onc(-c3ccc(F)cc3)c12 111%, COc1ccccc1Cn1c(=S)[nH]c2cc(C(=O)N3CCCCC3)ccc2c1=O 18.4%, Cn1ncc2c1CCc1sc(NC(=O)CCC3CCCCC3=O)nc1-2 (stereo not given) 74.3%, Cc1oc2ncnc(N3CCCC(C(=O)Nc4ccc(F)c(F)c4)C3)c2c1C (stereo not given) 85.7%, CC1CCc2c(sc3ncn(C4CCN(C(=O)c5cc[nH]n5)CC4)c(=O)c23)C1 (stereo not given) 87.9%, COc1ccc(C(=O)NCCc2cc3c(C)ccc(C)c3[nH]c2=O)c(OC)c1 97.7%, O=C(CSCc1ccccc1)Nc1cccc2c1C(=O)NC2=O 83.4%, CC(CCc1ccccc1)NC(=O)Cn1c2c(c(=O)n3nc(-c4ccccc4)nc13)CCC2 (stereo not given) 83.3%, Cc1cc(Oc2ncnc(N)c2[N+](=O)[O-])cc(C(C)C)c1 79.9%, CC(C)[C@H](Cn1nc(C2CC2)ccc1=O)NC(=O)c1cnn2cccnc12 91.1%, COc1ccc(NC(=O)C(=O)Nc2cc3c4c(c2)CC(=O)N4CCC3)cc1 60%, CCOC(=O)CSC1=C(C#N)C(c2ccccc2[N+](=O)[O-])C(C(=O)OC)C(=O)N1 (stereo not given) 96.9%, O=C(O)c1ccc2c(c1)C(=O)N(CCCN1CCOCC1)C2=O 115%, CC(=O)c1csc(NC(=O)COc2cccc3nsnc23)n1 3.05%, COc1ccc(NC(=O)N2c3ccccc3CC2C(N)=O)c(OC)c1 (stereo not given) 104%, COc1ccc(-n2ccn(CC(=O)Nc3ccc(Br)cc3F)c(=O)c2=O)cc1Cl 50%, NC(=O)C1CCN(C2=NC(=O)/C(=C/c3cn(-c4ccccc4)nc3-c3ccncc3)S2)CC1 94.3%, O=C(NCC1COc2ccccc2O1)c1cc2c(=O)n3ccccc3nc2s1 (stereo not given) 114%, O=C(Nc1nc2c(s1)CCCC2)c1ccc(-c2nc3ccccc3s2)s1 114%, COc1cccc(NC(=O)Cn2c(C)cc(=O)n3nc(-c4ccccc4C)nc23)c1 93.7%, O=C(CC1Nc2ccccc2NC1=O)Nc1ccc(N2CCCCC2)cc1 (stereo not given) 82.7%, Cc1cc(NC(=O)NCCCSc2nnc(C)s2)no1 96.5%, C=CCOc1ccccc1NC(=O)c1c(-c2ccncc2)noc1C 108%, COc1ccccc1CNC(=O)C1CCN(c2ncc3nc(-c4ccccc4)oc3n2)CC1 81.7%, COc1ccc(S(=O)(=O)N(C(C)=O)c2ccc3oc(C)c(C(C)=O)c3c2)cc1 119%, O=C(N/N=C/c1ccccc1O)c1cc(Br)ccc1O 101%, CC1Cc2cc(-c3nn(-c4ccccc4)cc3/C=C3\SC(=S)NC3=O)ccc2O1 (stereo not given) 96.6%, COc1ccc(O)c(NS(=O)(=O)c2ccc3c(c2)NC(=O)CO3)c1 86.3%, Cc1ccc(NC(=O)CC2C(=O)Nc3ccccc3N2C(=O)c2ccc(Br)cc2)cc1C (stereo not given) 19.6%, CC[C@@H](Cn1ncc2ccccc2c1=O)NC(=O)c1ccc2c(c1)n(C)c(=O)n2C 109%, O=C(CSc1ncnc2c1oc1ccccc12)NCCc1ccccc1 84.4%, Cc1cc(C)c(NC(=O)CS(=O)CC(=O)NC2CCS(=O)(=O)C2)c(C)c1 (stereo not given) 109%, Cn1c(=O)c2cc(C(=O)Nc3nccs3)sc2n(C)c1=O 94.6%, N#Cc1c(N)n(-c2ccc(NC(=O)c3cccs3)cc2)c2nc3ccccc3nc12 38.4%, CC1=C(C(=O)Nc2ccc(Br)cc2)C(c2ccc(C(C)C)cc2)NC(=O)N1 (stereo not given) 97.7%, COc1ccc(C(=O)CSc2nc(COc3ccccc3)nc3ccccc23)cc1 100%, Cc1cc(NC(=O)CSC2=NS(=O)(=O)c3ccccc3N2)[nH]n1 114%, COc1cc2ncc(C(=O)NCc3cccnc3)c(O)c2cc1OC 103%, COc1cc2cc(C3CC(c4ccco4)=NN3)c(Cl)nc2cc1OC (stereo not given) 124%, CN1C(=O)c2cccc(NC(=O)c3ccc(S(=O)(=O)N(C)CC4CCCO4)cc3)c2C1=O (stereo not given) 105%, COc1ccc(C(=O)Nc2nc3c(cc4c5c(cccc53)CC4)s2)c(OC)c1 97.7%, O=C(NC1CCCCC1)C(c1ccc2ncccc2c1)N(C(=O)c1cccs1)c1ccc(F)cc1 (stereo not given) 92.7%, O=C(O)c1cccc(S(=O)(=O)/N=C2/C=C(NS(=O)(=O)c3ccccc3)C(=O)c3ccccc32)c1 73.7%, O=c1[nH]c(NNC(=S)Nc2ccccc2)nc2sc3c(c12)CCCC3 116%, O=C(O)c1ccc2c(c1)C(=O)N(Cc1ccc3c(c1)OCO3)C2=O 113%, Cc1ccc(-c2nnn3c2[nH]c(=O)c2cc(Cl)ccc23)cc1 88.4%, O=C(NCCCc1ccccc1)c1c(O)nc2sccn2c1=O 92.8%, Nc1c(C(=O)NC2CCCCC2)sc2nc3c(cc12)C(=O)CCC3 106%, CCOC(=O)c1ccc2nc(NC(=O)Cc3cccc4ccccc34)sc2c1 69.1%, CCOC(=O)c1c(NC(=O)C2CC(=O)NN2Cc2ccccc2)sc2c1CCC2 (stereo not given) 122%, CCOC(=O)N1CCN(C(=O)CSc2ncnc3ccccc23)CC1 90.6%, O=C(NCC(c1cccs1)S(=O)(=O)c1ccccc1)Oc1ccccc1 (stereo not given) 89.3%, O=C(O)CC1C(=O)NCCN1Cc1cccc(C(F)(F)F)c1 (stereo not given) 101%, COC(=O)c1c(NC(=O)c2ccc(C#N)cc2)sc2c1CC(C)(C)NC2(C)C 115%, Cc1nc2ccc3nc(NC(=O)c4sc5ccccc5c4Cl)sc3c2s1 126%, Cc1ccc(-n2c(C)cn3c4c(=O)n(CC(N)=O)c(=O)n(C)c4nc23)cc1 108%, O=C(CSc1nncc(=O)[nH]1)Nc1ccc2c(c1)OCO2 46.6%, Cc1ccc(NC2SC(=O)N(CC(=O)O)C2=O)cc1 (stereo not given) 131%, COc1ccc(C(NC(=O)c2nnn(-c3ccccc3)c2C)c2ccncc2)cc1 (stereo not given) 48.7%, CCc1cc(-c2csc(S(=O)(=O)Nc3ccc(F)c(Cl)c3)c2)on1 37.5%, O=C(CCC1CCCCC1)NCc1n[nH]c(=O)c2ccccc12 82.4%, CC1CCCCN1Cc1nc2c([nH]1)c(=O)n(C)c(=O)n2C (stereo not given) 106%, N#Cc1cc2cc3c(cc2nc1SCC(=O)N1CC(=O)Nc2ccccc21)OCO3 111%, CCCN1C(SCC(=O)Nc2ccccc2C(=O)OCC)=NS(=O)(=O)c2ccccc21 97%, Cc1cc(-c2csc(S(=O)(=O)N3CCOCC3)c2)on1 94.7%, Cc1cc(C)n(-c2cc(NCC(C)c3ccccc3)ncn2)n1 (stereo not given) 39.4%, Cc1nc(-c2cccs2)c(CC(=O)Nc2ccc(Br)cc2)s1 113%, Cc1cccc2c(O)c(C(=O)N3CCC(C)CC3)cnc12 101%, COc1cccc(CNC(=O)Cn2cnc3onc(-c4ccc(Cl)cc4)c3c2=O)c1OC 87.1%, CC(NC(=O)CCCc1nnc2c(=O)n(-c3ccc(Cl)cc3)ccn12)c1ccccc1 (stereo not given) 125%
